Assay results as given in publication PMC9589693.
Results are given in words; binding and its absence hold for the method and conditions named.

Chains of the proteins cited; added tags and fusions are not shown. Residues count along the entry.
UniProt P29324, residues 772-926: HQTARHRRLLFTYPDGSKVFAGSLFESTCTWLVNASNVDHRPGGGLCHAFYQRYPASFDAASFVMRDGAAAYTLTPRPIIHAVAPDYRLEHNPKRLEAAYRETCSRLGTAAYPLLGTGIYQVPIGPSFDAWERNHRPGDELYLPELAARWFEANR

What was measured:
[1] = biological target: Hepatitis E virus macro domain (Hepatitis E virus) (UniProt P29324); assay: SEC; Superdex Increase 75 10/300 GL, 10 mM sodium acetate, 5 mM EDTA, pH 5.4; elution according to molecular weight; both purified
[2] = biological target: Hepatitis E virus macro domain (Hepatitis E virus) (UniProt P29324); assay: condition: 0.4 mM (apo form), 0.5 mM (ADP-ribose bound form); NMR 1H-15N HSQC (signal dispersion and line widths); 0.4 mM apo form and 0.5 mM with ADP-ribose at 1:10; 10 mM sodium acetate, 5 mM EDTA, pH 5.4, 298 K, 700 MHz; both purified

Hepatitis E virus macro domain (from UniProt P29324 772-926) (domain or fragment)
binding [1]: no binding | binding [2]: no binding
